In PubChem BioAssay AID624297 (National Center for Advancing Translational Sciences (NCATS), 2012):
Values joined by “and” are separate entries in the source; they are usually repeats but may differ in a detail not shown here. Equal values may be shown once. Hit rate of the full screen: of about 340,000 compounds, about 6,200 (1.8%) were called active. Inconclusive results, whose numbers are uncertain, are shown with a selection of clear calls. Calls come from the whole dose curve; as a rule, active = well fitted activation curve with a large enough effect; inconclusive = small, poorly fitted or top-dose-only effect; inactive = no such curve, though single readings can be large or run the other way. A potency beside an inconclusive call is a rough fit, not a confirmed value.

Assay: A quantitative high throughput screen for small molecules that induce DNA re-replication in SW480 colon adenocarcinoma cells. For re-replication activation: % of control where 0% means no effect. Note: nearly all actives have a fitted effect of over 55% in size.
Conditions: Hoechst DNA content imaging, 48 h; re-replication activation: at 46.1 µM (top of the series) unless noted
Method in brief: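 First, 250 cells per well were seeded. Next, compound or vehicle (23 nL) was pinned in, plates sat 48 hr at 37 C. Finally Hoechst was added for 40 min before fluorescence scanning.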
Potency is the fitted concentration of half-maximal effect.

SMILES	Potency	re-replication activation
O=C(O)CSc1cccc2cccnc12	inconclusive: 18.4 µM [activator, partial curve]	inactive: 0.337% [at 9.22 µM]
COc1ccc2nc(NNC(=O)COc3ccccc3)sc2c1	inactive	–
Cc1ccc(NC(=O)N(CCCN2CCOCC2)Cc2cc3cc4c(cc3[nH]c2=O)OCO4)cc1	inactive	–
CC(C)(C)c1ccc(Cn2nnc3c(=O)[nH]c(C4CCCN(C(=O)Cc5cccs5)C4)nc32)cc1 (centres undefined)	inconclusive: 14.6 µM [activator, partial curve]	–
CC(=O)C1=C(C)OC2(O)c3ccccc3C(=O)C12O (centres undefined)	inconclusive: 29.1 µM [activator, single point]	–
CN=C1S/C(=C\c2ccc(N3CCOCC3)c(F)c2)C(=O)N1C	inconclusive: 29.1 µM [activator, single point]	–
CCOCCCN1C(=O)C(=O)N(CC(=O)N2c3ccccc3NC(=O)CC2C)C1=O (centres undefined)	inactive	–
O=C(COc1ccccc1[N+](=O)[O-])Nc1ccc(N2CCN(C(=O)c3cccs3)CC2)cc1	inactive	–
CC(C)N(C(=O)CSc1nnc(NC(=O)c2cccs2)s1)C(C)C	inactive	–
COc1ccc(C(NC(=O)c2cccnc2)c2cc(Cl)c3cccnc3c2O)cc1OC (centres undefined)	inconclusive: 5.17 µM [activator, single point]	–
CCC1CCCCN1c1nc(-c2ccncc2)nc2ccccc12 (centres undefined)	inconclusive: 23.1 µM [activator, single point]	–
COC(=O)c1ccc(CSc2nnc(CS(=O)Cc3ccc(Br)cc3)n2-c2ccccc2)cc1 (centres undefined)	inconclusive: 16.4 µM [activator, partial curve, poor fit]	–
Cc1ccc(/C=C/C(=O)c2ccccc2)cc1	inconclusive: 29.1 µM [activator, single point]	–
O=[N+]([O-])c1ccc(/C=N/NC(=S)Nc2ccccc2)o1	inconclusive: 29.1 µM [activator, single point]	–
COC(=O)C1=CN(Cc2cccs2)C=C(C(=O)OC)C1c1cccc(Cl)c1	inconclusive: 29.1 µM [activator, single point]	–
Cc1cc(NC2=CC(=O)C(=O)c3ccccc32)no1	inconclusive: 18.4 µM [activator, single point]	–
CN[C@H](C)C(=O)NC[C@H]1O[C@@H](n2cnc3c(N)ncnc32)[C@H](O)[C@@H]1O	inconclusive: 4.11 µM [activator, single point]	–
Nc1c(N(Cc2ccccc2)C(=O)COc2ccc([N+](=O)[O-])cc2)c(=O)[nH]c(=O)n1Cc1ccccc1	inconclusive: 7.31 µM [activator, partial curve, poor fit]	–
Cc1nc2ccccc2nc(C)c1=NOCC(=O)N(c1ccccc1)C(C)C	inactive	–
Cc1cc(C)cc(OCC(=O)NNC(=O)CCN2C(=O)c3ccccc3C2=O)c1	inconclusive: 4.61 µM [activator, full curve, poor fit]	–
Cc1ccc(NC(=O)CN2C(=O)NC(C)(c3ccc(Cl)cc3)C2=O)c(Br)c1 (centres undefined)	inconclusive: 16.4 µM [activator, partial curve, poor fit]	–
Cc1ccc(S(=O)(=O)N2CCC(C(=O)N[C@@H](C)C(=O)NCc3ccco3)CC2)cc1	inconclusive: 16.4 µM [activator, single point]	–
Cc1ccc(C)c(N2CC(C(=O)Nc3nccs3)CC2=O)c1 (centres undefined)	inconclusive: 35.5 µM [activator, single point]	–

SMILES	Potency	re-replication activation
COCCNC(=O)c1ccc2c(c1)C(=O)c1ccccc1-2	–	inconclusive: -55.6% [activator]
Cc1cc(C)c(NC(=O)c2ccccc2C(=O)c2ccccc2)c(C)c1	inconclusive: 29.1 µM [activator, single point]	–
CCCOc1ccc(C(=O)N(Cc2cccs2)C2CCS(=O)(=O)C2)cc1 (centres undefined)	inconclusive: 32.6 µM [activator, single point]	–
CC(=O)Nc1cccc(C(=O)NC2CCCc3c2cnn3-c2cc(C)cc(C)c2)c1 (centres undefined)	inactive	–
CC1CCN(C(=O)Nc2cccc(NC(=O)N3CCC(C)CC3)c2)CC1	inconclusive: 20.6 µM [activator, single point]	–
COc1ccccc1NC(=O)C1=C(C)NC2=C(C(=O)CC(c3ccc(OC)c(OC)c3)C2)C1c1coc2ccccc2c1=O (centres undefined)	inactive	–
Cc1cccc(NC(=O)NC(C)CCc2ccccc2)c1 (centres undefined)	inactive	–
CC(C)n1cc(NC(=O)c2cc(-c3ccccc3)on2)cn1	active: 5.17 µM	–
COCCn1nc2cc(C(=O)NCC34CC5CC(CC(C5)C3)C4)ccc2c1OC	inactive	–
O=S(=O)(O)c1ccc(N2N=C(c3ccccc3)CC2c2ccccc2)cc1 (centres undefined)	active: 14.6 µM	–
CNC(=S)N1CCC(NC(=O)C(Cc2ccc(OC)cc2)NC(C)=O)CC1 (centres undefined)	inconclusive: 6.51 µM [activator, single point]	–
COc1ccc(C(=O)/C=C/C(=O)N(Cc2ccc3c(c2)OCO3)C(C(=O)NC2CCCCC2)c2ccncc2)c(O)c1 (centres undefined)	inconclusive: 9.2 µM [activator, partial curve, poor fit]	–
S=c1[nH]nc(-c2ccncc2)n1/N=C/c1ccccc1	inconclusive: 0.164 µM [activator, partial curve, poor fit]	–
CCCCC(=O)Nc1cccc(NC(=O)c2ccc(Br)o2)c1	inactive	–
CCOc1ccc(S(=O)(=O)Nc2ccccc2C(=O)N2CCCC2)cc1	inconclusive: 29.1 µM [activator, single point]	–
Cc1ccc(C)c(S(=O)(=O)N2CCN(C(=O)Cc3c(F)cccc3Cl)CC2)c1	inactive	–
O=C(Nc1cccc(-c2cccc(F)c2)c1)C1CCN(Cc2ccco2)CC1	inconclusive: 29.1 µM [activator, single point]	–
COc1ccc(S(=O)(=O)N(C(=O)c2ccco2)c2cc3sc(=O)oc3c3ccccc23)cc1	inconclusive: 6.51 µM [activator, partial curve, poor fit]	–
CCOc1ccc(NS(=O)(=O)c2ccc3c(c2)N(C(C)=O)CCO3)cc1	inconclusive: 5.17 µM [activator, single point]	–
O=C(OCCC12CC3CC(CC(C3)C1)C2)c1ccc(NCc2cc(O)ccc2O)cc1	inconclusive: 18.4 µM [activator, single point]	–
COc1cc(CN2CCNC(=O)C2CC(=O)NCCC2=CCCCC2)cc(OC)c1 (centres undefined)	inactive	–
O=C(N/N=C/c1ccoc1)c1ccccc1	inactive	–
Cc1nn(CC(=O)N2CCC(C)CC2)c(=O)c2nn(-c3ccccc3)c(C)c12	inactive	–

SMILES	Potency	re-replication activation
CC(C)(C)/C=N/NC(=O)C1CC1	inconclusive: 29.1 µM [activator, single point]	–
COc1ccc(CN(C)c2ncnc3sccc23)c(OC)c1OC	inconclusive: 20.6 µM [activator, single point]	–
COCC1CCCN(C(=O)c2cc(COc3ccc(C(C)=O)cc3)on2)C1 (centres undefined)	inactive	–
Cc1ccc(NC(=O)c2cc(-n3cnnc3)ccc2Cl)c(C)c1	inconclusive: 29.1 µM [activator, partial curve, poor fit]	–
COCCCNC(=O)c1ccc(N2CCCC2)c(NS(=O)(=O)c2ccc(C)cc2)c1	inconclusive: 32.6 µM [activator, partial curve, poor fit]	–
O=C(Cc1ccccc1Cl)NNC(=O)Nc1ccccc1	active: 29.1 µM	–
CCOC(=O)C1=C(CC)Nc2ccccc2N=C1NC(=O)c1ccc(OC)c(S(=O)(=O)N2CCCCC2C)c1 (centres undefined)	inactive	–
CCOC(=O)C1=C(C)Nc2ccccc2N=C1NC(=O)c1oc2ccccc2c1COC	inactive	–
C[C@]12CC[C@@H]3c4ccc(O)cc4CC[C@H]3[C@@H]1CC[C@@H]2O	inconclusive: 33.5 µM [activator, partial curve, poor fit] and inconclusive: 25.9 µM [activator, partial curve, poor fit]	–
Cc1cc2ncc(-c3cccs3)nc2cc1C	inactive	–
Cc1ccc2nc3c(cc(C(=O)NCC4CCCO4)c(=N)n3CC3CCCO3)c(=O)n2c1 (centres undefined)	inconclusive: 1.3 µM [activator, partial curve, poor fit]	–
COc1cc(OC)cc(C(=O)OCC(=O)Nc2cccc(C(C)=O)c2)c1	inconclusive: 32.6 µM [activator, partial curve, poor fit]	–
CC1CCC(NC(=O)COC(=O)C2=NN(c3ccccc3)C(=O)CC2)CC1 (centres undefined)	inactive	–
Fc1ccc(C2c3cccn3CCN2C(=S)Nc2cccc(F)c2)cc1 (centres undefined)	inactive	–
S=C(NC1CC1)N1CCCc2ccccc21	inactive	–
COc1ccc(CCN(Cc2cc3cc(C)c(C)cc3nc2Cl)C(=O)C2CC2)cc1	inconclusive: 20.6 µM [activator, partial curve, poor fit]	–
COc1ccccc1NS(=O)(=O)c1ccc(C)c(NC(=O)NCCCl)c1	inconclusive: 18.4 µM [activator, single point]	–
COc1ccc(Cn2nnnc2C(c2cccs2)N2CCSCC2)cc1 (centres undefined)	inactive	–
O=c1c2c3c(sc2nc(NCCO)n1CCc1ccccc1)CCCCC3	inconclusive: 25.9 µM [activator, single point]	–
CCOC(=O)Cc1csc(NC(=O)CCN2C(=O)c3ccccc3C2=O)n1	inconclusive: 20.6 µM [activator, partial curve, poor fit]	–
CCCCC1=CC2=CC(=O)C(C)(OC(=O)CC)C(=O)C2=CN1Cc1ccco1 (centres undefined)	inconclusive: 6.51 µM [activator, partial curve, poor fit]	–
CCOC(=O)c1ccc(COc2ccc(C(C)C)cc2)o1	inactive	–
